For three molecules, binding results are on record in paper PMC9275142.

By UniProt entry, the sequences of proteins in these tests, tags left out.
UniProt Q9GZV5: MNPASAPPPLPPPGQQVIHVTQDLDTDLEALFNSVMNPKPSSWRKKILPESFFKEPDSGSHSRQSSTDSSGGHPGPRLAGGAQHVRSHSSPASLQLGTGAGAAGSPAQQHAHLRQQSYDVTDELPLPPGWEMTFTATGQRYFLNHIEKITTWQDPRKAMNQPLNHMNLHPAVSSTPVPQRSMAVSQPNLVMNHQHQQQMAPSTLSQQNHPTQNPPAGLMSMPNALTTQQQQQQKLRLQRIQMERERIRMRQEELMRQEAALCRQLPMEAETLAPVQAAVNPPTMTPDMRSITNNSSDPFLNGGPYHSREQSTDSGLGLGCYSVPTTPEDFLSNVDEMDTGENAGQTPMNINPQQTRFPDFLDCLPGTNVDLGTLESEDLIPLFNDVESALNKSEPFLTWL

Assay [1] addresses T1, Flag-DUB1 full length (UniProt Q9P275).
T1 sequence: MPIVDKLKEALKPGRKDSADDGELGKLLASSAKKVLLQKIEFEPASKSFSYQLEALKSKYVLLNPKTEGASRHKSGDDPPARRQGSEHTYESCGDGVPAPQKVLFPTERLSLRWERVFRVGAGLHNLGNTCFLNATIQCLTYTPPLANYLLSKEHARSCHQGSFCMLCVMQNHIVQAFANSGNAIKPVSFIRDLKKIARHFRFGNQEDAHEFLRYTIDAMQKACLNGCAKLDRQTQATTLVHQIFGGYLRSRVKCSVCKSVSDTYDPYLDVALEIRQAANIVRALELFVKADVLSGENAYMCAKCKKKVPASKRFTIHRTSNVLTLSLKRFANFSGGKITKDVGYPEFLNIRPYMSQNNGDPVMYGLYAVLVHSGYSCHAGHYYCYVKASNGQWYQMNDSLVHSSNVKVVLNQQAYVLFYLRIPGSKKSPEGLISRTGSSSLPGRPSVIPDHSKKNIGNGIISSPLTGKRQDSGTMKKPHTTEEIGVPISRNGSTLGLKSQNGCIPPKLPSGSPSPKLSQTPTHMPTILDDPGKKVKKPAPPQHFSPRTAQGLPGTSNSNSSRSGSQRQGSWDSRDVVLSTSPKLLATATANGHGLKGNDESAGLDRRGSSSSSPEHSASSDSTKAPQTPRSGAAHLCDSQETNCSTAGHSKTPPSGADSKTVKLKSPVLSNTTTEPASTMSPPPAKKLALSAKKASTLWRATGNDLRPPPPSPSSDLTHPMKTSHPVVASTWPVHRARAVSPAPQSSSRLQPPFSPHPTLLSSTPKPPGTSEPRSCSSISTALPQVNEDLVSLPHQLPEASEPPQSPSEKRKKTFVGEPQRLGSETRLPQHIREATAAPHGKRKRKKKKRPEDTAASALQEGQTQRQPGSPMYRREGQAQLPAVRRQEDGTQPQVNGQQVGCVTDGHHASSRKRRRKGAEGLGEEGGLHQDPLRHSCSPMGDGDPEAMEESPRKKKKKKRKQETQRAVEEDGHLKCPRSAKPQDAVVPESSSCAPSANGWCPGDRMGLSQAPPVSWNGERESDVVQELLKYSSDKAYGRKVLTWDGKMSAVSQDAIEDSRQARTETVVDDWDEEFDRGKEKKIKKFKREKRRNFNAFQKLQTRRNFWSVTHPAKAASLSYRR
Kind of assay: co-IP; HEK293 transfected with Flag-DUB1 and Myc-TAZ (full length or deletion mutants); NP-40 lysis buffer; IP with anti-Flag (Fig. 5G).

Assay [2] addresses T2, DUB1 (also called USP36), endogenous (human (endogenous in MGC803)) (UniProt Q9P275).
T2 sequence: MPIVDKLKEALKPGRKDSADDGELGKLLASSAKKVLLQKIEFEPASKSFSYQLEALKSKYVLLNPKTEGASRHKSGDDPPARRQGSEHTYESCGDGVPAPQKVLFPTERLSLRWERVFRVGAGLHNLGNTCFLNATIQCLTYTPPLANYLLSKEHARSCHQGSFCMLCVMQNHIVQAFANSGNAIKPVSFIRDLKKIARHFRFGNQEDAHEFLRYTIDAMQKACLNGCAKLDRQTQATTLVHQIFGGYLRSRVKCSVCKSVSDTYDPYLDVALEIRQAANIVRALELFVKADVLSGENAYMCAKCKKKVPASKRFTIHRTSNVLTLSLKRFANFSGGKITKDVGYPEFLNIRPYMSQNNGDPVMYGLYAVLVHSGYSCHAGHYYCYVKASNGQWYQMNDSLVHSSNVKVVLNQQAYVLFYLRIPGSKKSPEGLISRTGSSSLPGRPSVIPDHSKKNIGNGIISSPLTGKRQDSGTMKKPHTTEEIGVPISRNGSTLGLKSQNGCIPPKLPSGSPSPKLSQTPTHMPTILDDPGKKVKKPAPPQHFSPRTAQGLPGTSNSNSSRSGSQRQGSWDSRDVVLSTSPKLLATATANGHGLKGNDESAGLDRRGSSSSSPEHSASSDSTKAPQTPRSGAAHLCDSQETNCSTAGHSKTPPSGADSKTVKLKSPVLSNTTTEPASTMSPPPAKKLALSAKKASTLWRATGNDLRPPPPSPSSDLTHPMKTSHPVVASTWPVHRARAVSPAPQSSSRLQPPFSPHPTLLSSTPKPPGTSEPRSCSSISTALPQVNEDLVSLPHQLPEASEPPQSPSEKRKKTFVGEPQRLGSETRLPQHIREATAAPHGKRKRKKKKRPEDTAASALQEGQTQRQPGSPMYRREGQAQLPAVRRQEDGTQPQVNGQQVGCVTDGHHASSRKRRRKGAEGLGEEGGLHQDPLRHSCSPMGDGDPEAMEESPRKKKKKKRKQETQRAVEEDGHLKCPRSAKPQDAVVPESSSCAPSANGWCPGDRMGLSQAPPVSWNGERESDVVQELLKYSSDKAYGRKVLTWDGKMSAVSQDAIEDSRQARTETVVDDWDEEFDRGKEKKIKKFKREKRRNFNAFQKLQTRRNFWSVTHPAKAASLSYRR
The assay is described as follows: co-IP; endogenous proteins; MGC803 lysate (RIPA lysis buffer) precleared with rabbit IgG, immunoprecipitated with anti-DUB1 overnight, rabbit IgG as negative control, blot with anti-TAZ.

For assay [3], the target named is Myc-TAZ full length (UniProt Q9GZV5). Kind of assay: co-IP; HEK293 transfected with Myc-TAZ and Flag-DUB1 (full length or domains); NP-40 lysis buffer; IP with anti-Myc, blot with anti-Flag (Fig. 5F).

Results are given in words; binding and its absence hold for the method and conditions named. In cells and extracts the contact can be indirect. Some binding calls cover weakened binding; strength is not graded here. For part of these data: Where a sequence is shown, tags or fusion partners need not be part of it.

On to “Myc-TAZ full length (from UniProt Q9GZV5 1-400)”, for which the binding entry in assay [1] is “binds”.

“TAZ (Transcriptional Co-Activator With PDZ-Binding Motif), endogenous (from UniProt Q9GZV5 1-400)”: the binding entry in assay [2] is “binds”.

B1: Flag-DUB1 full length (enzyme, UniProt Q9P275 1-1123)
chain: MPIVDKLKEALKPGRKDSADDGELGKLLASSAKKVLLQKIEFEPASKSFSYQLEALKSKYVLLNPKTEGASRHKSGDDPPARRQGSEHTYESCGDGVPAPQKVLFPTERLSLRWERVFRVGAGLHNLGNTCFLNATIQCLTYTPPLANYLLSKEHARSCHQGSFCMLCVMQNHIVQAFANSGNAIKPVSFIRDLKKIARHFRFGNQEDAHEFLRYTIDAMQKACLNGCAKLDRQTQATTLVHQIFGGYLRSRVKCSVCKSVSDTYDPYLDVALEIRQAANIVRALELFVKADVLSGENAYMCAKCKKKVPASKRFTIHRTSNVLTLSLKRFANFSGGKITKDVGYPEFLNIRPYMSQNNGDPVMYGLYAVLVHSGYSCHAGHYYCYVKASNGQWYQMNDSLVHSSNVKVVLNQQAYVLFYLRIPGSKKSPEGLISRTGSSSLPGRPSVIPDHSKKNIGNGIISSPLTGKRQDSGTMKKPHTTEEIGVPISRNGSTLGLKSQNGCIPPKLPSGSPSPKLSQTPTHMPTILDDPGKKVKKPAPPQHFSPRTAQGLPGTSNSNSSRSGSQRQGSWDSRDVVLSTSPKLLATATANGHGLKGNDESAGLDRRGSSSSSPEHSASSDSTKAPQTPRSGAAHLCDSQETNCSTAGHSKTPPSGADSKTVKLKSPVLSNTTTEPASTMSPPPAKKLALSAKKASTLWRATGNDLRPPPPSPSSDLTHPMKTSHPVVASTWPVHRARAVSPAPQSSSRLQPPFSPHPTLLSSTPKPPGTSEPRSCSSISTALPQVNEDLVSLPHQLPEASEPPQSPSEKRKKTFVGEPQRLGSETRLPQHIREATAAPHGKRKRKKKKRPEDTAASALQEGQTQRQPGSPMYRREGQAQLPAVRRQEDGTQPQVNGQQVGCVTDGHHASSRKRRRKGAEGLGEEGGLHQDPLRHSCSPMGDGDPEAMEESPRKKKKKKRKQETQRAVEEDGHLKCPRSAKPQDAVVPESSSCAPSANGWCPGDRMGLSQAPPVSWNGERESDVVQELLKYSSDKAYGRKVLTWDGKMSAVSQDAIEDSRQARTETVVDDWDEEFDRGKEKKIKKFKREKRRNFNAFQKLQTRRNFWSVTHPAKAASLSYRR
Consider B1, for which the binding result in assay [3] was “binds”.
